From publication PMC7889890, “Structure of photosystem I-LHCI-LHCII from the green alga Chlamydomonas reinhardtii in State 2” (Nature Communications, 2021)
Results are given in words; binding and its absence hold for the method and conditions named. Binding calls can cover weak binding; strength is not graded here.

T1: PsaD (Chlamydomonas reinhardtii (endogenous in strain CC-137)) (UniProt Q39615)
T1 sequence: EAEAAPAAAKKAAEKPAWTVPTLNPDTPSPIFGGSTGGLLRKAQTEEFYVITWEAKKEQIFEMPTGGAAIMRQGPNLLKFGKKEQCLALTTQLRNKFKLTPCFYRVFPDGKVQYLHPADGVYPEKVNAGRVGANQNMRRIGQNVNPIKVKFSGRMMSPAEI


How the values were obtained:
[1] = target: T1, PsaD (Chlamydomonas reinhardtii (endogenous in strain CC-137)); assay: cryo-EM structure; single-particle cryo-EM of the PSI-LHCI-LHCII supercomplex purified from state 2 cells; 3.42 Å overall; 10 mM Hepes-KOH pH 7.5, 50 mM NaCl, 1 mM NaN3, 10 mM NaF, 0.01% α-DDM; both purified
[2] = target: PsaL (Chlamydomonas reinhardtii (endogenous in strain CC-137)); assay: as above

binding [1]	binding [2]	Molecule
binds		PsaO
	binds	PsaH (natural protein, UniProt P13352 31-130, looked up, PSI core subunit PsaH of C. reinhardtii; also called Cr-PsaH; source: endogenous, C. reinhardtii CC-137 cells in state 2; thylakoid membranes solubilised with α-DDM, PSI-LHCI-LHCII purified (sucrose density gradient, gel filtration)) KYGENSRYFDLQDMENTTGSWDMYGVDEKKRYPDNQAKFFTQATDIISRRESLRALVALSGIAAIVTYGLKGAKDADLPITKGPQTTGENGKGGSVRSRL
